# In the supplement of paper PMC12595434, “Development of retinoid nuclear receptor pathway antagonists through targeting aldehyde dehydrogenase 1A3” (iScience, 2025):
# The chains behind the UniProt entries cited, without tags or fusion partners. Where a name states a change or a piece, a line headed by the entry shows the natural chain unless it says otherwise.
# UniProt P09211: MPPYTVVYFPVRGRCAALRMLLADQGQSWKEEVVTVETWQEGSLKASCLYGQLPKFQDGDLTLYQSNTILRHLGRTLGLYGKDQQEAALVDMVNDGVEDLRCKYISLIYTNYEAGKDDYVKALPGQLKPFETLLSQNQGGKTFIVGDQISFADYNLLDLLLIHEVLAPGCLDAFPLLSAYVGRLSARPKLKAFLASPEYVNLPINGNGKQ
# UniProt P19338, whole entry: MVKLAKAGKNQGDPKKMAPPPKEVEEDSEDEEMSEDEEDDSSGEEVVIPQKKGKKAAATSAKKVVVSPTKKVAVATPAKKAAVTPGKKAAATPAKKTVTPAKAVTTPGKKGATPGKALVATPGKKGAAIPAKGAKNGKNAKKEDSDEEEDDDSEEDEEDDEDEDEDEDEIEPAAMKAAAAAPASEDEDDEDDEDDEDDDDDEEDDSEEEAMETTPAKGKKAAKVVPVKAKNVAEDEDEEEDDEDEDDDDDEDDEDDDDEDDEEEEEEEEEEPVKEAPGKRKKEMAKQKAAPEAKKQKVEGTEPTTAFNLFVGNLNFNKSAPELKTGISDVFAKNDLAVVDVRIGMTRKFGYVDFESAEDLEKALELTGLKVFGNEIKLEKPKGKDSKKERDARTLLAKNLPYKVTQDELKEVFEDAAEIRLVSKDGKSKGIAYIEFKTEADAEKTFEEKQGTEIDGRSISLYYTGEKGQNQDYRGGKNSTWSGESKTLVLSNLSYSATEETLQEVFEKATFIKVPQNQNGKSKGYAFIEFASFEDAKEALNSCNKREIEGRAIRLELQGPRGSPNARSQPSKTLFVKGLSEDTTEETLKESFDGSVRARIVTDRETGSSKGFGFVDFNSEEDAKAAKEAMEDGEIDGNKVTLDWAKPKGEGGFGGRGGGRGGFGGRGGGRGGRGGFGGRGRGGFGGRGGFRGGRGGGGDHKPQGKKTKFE
# UniProt P14854, whole entry: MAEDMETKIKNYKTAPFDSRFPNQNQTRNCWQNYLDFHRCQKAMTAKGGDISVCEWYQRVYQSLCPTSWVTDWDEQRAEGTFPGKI
# UniProt P19784, whole entry, looked up: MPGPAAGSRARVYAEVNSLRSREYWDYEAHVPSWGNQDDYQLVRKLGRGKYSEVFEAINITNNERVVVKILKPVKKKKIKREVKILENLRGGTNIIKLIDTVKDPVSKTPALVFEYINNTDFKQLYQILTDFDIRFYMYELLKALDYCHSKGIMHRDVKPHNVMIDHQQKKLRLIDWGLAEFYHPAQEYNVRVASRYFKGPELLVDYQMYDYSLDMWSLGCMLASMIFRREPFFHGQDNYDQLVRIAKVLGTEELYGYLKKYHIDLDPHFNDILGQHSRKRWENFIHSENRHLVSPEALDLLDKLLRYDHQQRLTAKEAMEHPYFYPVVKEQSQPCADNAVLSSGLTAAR
# UniProt P15735: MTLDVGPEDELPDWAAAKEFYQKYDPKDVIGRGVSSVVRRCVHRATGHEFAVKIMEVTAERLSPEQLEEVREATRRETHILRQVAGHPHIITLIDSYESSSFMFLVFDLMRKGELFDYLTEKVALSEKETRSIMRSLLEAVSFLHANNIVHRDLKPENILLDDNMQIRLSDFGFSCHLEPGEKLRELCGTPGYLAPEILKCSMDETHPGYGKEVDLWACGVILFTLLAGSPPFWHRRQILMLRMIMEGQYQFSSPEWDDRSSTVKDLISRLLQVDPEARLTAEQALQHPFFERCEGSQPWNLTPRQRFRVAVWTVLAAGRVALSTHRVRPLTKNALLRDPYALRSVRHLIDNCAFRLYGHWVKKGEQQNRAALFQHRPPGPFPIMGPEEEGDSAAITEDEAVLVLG
# UniProt P16591: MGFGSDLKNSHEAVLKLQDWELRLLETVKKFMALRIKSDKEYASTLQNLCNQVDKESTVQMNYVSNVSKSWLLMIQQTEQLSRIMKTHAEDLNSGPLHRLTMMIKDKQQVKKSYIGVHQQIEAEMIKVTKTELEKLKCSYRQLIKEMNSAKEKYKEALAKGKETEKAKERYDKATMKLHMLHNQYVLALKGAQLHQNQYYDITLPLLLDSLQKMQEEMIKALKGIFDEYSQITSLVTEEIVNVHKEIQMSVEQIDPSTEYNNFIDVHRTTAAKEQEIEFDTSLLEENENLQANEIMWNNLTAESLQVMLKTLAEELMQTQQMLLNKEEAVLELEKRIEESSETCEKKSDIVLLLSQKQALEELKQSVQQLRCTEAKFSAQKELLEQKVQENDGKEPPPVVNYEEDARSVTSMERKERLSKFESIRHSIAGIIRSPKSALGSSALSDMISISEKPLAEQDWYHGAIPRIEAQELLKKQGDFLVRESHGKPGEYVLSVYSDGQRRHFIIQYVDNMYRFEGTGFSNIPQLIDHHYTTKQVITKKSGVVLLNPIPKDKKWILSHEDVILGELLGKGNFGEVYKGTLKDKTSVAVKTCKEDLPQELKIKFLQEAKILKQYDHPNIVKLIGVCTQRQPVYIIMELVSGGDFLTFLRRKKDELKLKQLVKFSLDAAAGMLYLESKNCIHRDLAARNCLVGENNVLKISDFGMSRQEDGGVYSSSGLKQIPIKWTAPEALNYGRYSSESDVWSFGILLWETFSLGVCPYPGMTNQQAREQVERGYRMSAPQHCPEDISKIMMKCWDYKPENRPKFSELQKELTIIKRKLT
# UniProt P19404, whole entry: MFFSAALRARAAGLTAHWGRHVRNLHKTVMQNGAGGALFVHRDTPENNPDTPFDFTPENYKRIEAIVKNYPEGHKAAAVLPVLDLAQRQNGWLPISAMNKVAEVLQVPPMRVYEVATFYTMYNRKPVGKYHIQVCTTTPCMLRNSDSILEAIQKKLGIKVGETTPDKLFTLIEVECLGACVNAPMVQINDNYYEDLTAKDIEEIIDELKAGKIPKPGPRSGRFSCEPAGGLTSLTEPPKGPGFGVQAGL
# UniProt P10398: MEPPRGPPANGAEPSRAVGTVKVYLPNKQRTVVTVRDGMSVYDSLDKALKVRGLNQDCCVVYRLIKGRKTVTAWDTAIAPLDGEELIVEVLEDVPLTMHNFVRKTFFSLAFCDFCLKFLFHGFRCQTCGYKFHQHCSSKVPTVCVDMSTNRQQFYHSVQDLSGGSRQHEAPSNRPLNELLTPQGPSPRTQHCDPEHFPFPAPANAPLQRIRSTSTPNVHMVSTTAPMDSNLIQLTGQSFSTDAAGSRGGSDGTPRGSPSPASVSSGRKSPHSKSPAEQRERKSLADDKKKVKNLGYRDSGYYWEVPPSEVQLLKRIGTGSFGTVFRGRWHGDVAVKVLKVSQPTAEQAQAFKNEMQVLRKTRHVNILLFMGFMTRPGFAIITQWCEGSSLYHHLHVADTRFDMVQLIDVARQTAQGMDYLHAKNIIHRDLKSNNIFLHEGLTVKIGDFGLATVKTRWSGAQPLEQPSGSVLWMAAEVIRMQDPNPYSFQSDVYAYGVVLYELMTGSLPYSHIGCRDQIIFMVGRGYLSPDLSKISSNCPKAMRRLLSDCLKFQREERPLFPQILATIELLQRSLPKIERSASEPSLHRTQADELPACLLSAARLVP
# UniProt P11172: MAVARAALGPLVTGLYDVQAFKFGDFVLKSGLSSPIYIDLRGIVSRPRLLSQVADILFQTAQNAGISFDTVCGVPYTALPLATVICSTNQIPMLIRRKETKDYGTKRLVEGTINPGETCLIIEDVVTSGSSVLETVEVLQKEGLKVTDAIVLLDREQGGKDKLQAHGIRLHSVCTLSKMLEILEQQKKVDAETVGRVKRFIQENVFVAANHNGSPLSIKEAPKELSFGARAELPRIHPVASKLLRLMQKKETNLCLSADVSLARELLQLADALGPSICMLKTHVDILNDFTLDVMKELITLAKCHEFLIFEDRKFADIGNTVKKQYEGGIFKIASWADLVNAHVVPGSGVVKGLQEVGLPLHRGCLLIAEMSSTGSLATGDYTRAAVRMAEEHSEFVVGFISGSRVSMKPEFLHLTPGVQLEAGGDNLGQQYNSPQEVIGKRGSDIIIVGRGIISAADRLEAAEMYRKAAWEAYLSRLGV
# UniProt P14923: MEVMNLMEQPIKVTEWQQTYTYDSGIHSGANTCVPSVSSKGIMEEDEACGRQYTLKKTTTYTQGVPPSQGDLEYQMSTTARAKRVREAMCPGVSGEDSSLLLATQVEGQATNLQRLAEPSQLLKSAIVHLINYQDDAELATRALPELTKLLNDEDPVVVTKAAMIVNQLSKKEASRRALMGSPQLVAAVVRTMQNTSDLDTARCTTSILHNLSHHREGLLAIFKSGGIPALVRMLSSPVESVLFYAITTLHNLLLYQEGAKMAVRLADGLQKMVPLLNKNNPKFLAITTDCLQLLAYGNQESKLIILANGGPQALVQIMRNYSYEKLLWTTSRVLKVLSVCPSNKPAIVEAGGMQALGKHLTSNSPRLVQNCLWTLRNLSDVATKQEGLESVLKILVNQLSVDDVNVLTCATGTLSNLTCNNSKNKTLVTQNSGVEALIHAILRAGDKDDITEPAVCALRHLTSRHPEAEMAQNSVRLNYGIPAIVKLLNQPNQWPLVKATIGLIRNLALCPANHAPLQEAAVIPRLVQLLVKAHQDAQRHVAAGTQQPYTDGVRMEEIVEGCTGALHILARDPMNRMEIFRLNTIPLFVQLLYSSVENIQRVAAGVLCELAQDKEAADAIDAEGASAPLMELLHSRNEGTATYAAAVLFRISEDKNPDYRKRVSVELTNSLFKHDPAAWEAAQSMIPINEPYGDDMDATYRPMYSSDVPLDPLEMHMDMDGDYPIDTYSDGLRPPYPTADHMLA
# UniProt P08754, whole entry: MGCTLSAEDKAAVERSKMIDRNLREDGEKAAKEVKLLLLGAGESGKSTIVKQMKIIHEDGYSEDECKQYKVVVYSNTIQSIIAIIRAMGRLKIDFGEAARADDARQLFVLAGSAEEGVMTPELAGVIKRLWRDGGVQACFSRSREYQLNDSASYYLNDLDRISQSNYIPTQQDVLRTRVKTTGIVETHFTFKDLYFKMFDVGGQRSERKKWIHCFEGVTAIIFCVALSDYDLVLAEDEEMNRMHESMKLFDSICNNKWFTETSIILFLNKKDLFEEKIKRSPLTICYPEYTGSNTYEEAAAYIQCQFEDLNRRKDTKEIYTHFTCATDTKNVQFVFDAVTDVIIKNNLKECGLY
# UniProt P10114: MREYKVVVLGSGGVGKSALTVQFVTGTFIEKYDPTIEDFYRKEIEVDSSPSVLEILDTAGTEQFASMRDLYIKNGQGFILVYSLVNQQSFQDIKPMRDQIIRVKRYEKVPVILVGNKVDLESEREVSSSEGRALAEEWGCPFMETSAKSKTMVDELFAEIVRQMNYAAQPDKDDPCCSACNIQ
# UniProt P09488: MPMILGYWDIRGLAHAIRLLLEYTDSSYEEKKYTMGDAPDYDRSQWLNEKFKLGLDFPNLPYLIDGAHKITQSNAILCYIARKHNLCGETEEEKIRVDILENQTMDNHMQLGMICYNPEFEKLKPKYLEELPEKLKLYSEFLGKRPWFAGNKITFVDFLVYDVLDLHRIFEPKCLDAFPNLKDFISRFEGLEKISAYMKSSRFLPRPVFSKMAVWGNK
# UniProt P14735, whole entry: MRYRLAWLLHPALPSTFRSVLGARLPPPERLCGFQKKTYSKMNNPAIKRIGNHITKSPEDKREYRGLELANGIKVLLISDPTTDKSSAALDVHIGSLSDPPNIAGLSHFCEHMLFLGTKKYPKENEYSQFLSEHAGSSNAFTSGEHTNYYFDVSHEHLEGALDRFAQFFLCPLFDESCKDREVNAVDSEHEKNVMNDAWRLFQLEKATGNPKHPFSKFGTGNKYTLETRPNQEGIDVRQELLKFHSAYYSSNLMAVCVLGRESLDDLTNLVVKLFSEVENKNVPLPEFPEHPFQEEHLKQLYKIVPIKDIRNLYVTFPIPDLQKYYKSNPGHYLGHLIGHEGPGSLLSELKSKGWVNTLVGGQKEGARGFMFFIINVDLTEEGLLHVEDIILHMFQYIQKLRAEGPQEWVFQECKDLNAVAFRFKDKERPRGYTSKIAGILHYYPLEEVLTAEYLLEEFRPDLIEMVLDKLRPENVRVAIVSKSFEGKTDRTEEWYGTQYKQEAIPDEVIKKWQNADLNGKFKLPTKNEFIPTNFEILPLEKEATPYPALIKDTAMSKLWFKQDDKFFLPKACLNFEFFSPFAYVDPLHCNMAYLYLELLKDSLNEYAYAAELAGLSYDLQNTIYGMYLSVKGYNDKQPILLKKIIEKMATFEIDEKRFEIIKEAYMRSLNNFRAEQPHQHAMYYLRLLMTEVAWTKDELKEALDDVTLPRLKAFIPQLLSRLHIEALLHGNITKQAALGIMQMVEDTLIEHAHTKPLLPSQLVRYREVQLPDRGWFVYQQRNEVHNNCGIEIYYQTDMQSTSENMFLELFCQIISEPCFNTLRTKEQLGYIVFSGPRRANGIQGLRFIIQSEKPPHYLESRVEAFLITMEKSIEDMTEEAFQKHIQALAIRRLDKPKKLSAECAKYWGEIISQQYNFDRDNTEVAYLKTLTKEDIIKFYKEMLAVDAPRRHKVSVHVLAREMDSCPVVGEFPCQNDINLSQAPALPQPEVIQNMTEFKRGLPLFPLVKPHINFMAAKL
# This is one part of the list. The data scatter; read single values as rough.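 Tm was set to 64 °C where no melting was found, and many curves are irregular.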
# Compound: CCc1cnccc1C(=O)Nc1cc2c(cc1F)NC(=O)CC2
# Assay: melting temperature shift (DMSO Tm minus MBE1-treated Tm) in cellular thermal proteome profiling; higher = less thermal stabilization by MBE1 (negative = stabilized by MBE1)
# Conditions: A375
Target,melting temperature shift (MBE1 concentration: 100 nM) [°C],melting temperature shift (MBE1 concentration: 1 uM) [°C]
UniProt P09211,-0.738,0.288
NCL (UniProt P19338),0.147,-0.788
GAA (UniProt P10253),-3.48,-3.02
COX6B1 (UniProt P14854),-1.29,-0.765
UniProt P19784,-0.665,0.972
HNRNPL (UniProt P14866),-0.109,-0.0513
UniProt P20265,-0.448,-0.73
PHKG2 (UniProt P15735),-0.829,0.495
FER (UniProt P16591),-0.993,0.288
ESRRA (UniProt P11474),-0.583,0.615
RPS2 (UniProt P15880),-0.946,0.934
BRAF (UniProt P15056),-0.395,-0.663
NDUFV2 (UniProt P19404),-0.543,-0.416
ARAF (UniProt P10398),2.67,2.01
UMPS (UniProt P11172),-0.389,0.107
JUP (UniProt P14923),-1.31,2.21
GNAI3 (UniProt P08754),-0.651,-0.53
TPR (UniProt P12270),0.0855,-1.01

# Whole records, quoted from the list. Order of values: melting temperature shift (MBE1 concentration: 100 nM) [°C] | melting temperature shift (MBE1 concentration: 1 uM) [°C]
# NCL (UniProt P19338) as listed: 0.147 | -0.788
# TPR (UniProt P12270) as listed: 0.0855 | -1.01
# COX6B1 (UniProt P14854) as listed: -1.29 | -0.765

# Additional records follow:

Target,melting temperature shift (MBE1 concentration: 100 nM) [°C],melting temperature shift (MBE1 concentration: 1 uM) [°C]
UniProt P0DN79,-0.269,0.366
EPB41 (UniProt P11171),-0.551,0.269
PTPRF (UniProt P10586),1.25,0.55
UniProt P17098,2.27,2.15
UniProt P13056,1.83,0.147
LYN (UniProt P07948),0.598,1.09
RPL35A (UniProt P18077),-0.0672,-0.0977
HSPD1 (UniProt P10809),-0.366,0.0488
UniProt P10114,-2.62,0.552
PFKM (UniProt P08237),-0.688,-0.462
UniProt P09488,-0.727,0.427
IDE (UniProt P14735),0.708,-0.33
DSP (UniProt P15924),1.5,3.09
MET (UniProt P08581),0.788,-0.574
LAMP2 (UniProt P13473),-4.2,-1.84
GCFC2 (UniProt P16383),-0.279,-0.48
NELFE (UniProt P18615),-1.65,-2.31
PABPC1 (UniProt P11940),-0.0244,-0.232
